Laboratory results as given in PubChem BioAssay (NCATS).
The inconclusive results got no clear call from the source; some entries with a clear call stand among them for comparison. For some of these results: A potency beside an inconclusive call is a rough fit, not a confirmed value. Activity calls are given as the source filed them. The call rests on the fitted dose curve; in most records, active means well fitted cell-killing curve with a large enough effect; inconclusive means small, poorly fitted or top-dose-only effect, or effect the other way; inactive means no such curve, though single readings can be large or run the other way.

Experiments:
[1] = Quantitative High-Throughput drug screen in 47 multiple myeloma cell lines against the NCATS MIPE library collection: Delta47_JCRB cell viability assay (AID 1918925; further: nearly all actives have a fitted effect of over 45% in size); settings: Delta47 myeloma viability, CellTiter-Glo ATP, 48 h; viability (% of DMSO): at 45.8 µM (top of the series)
In short: (§1)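 Viability readout: CellTiter-Glo luminescence following 5 min room-temperature incubation with reagent. Prior exposure: 48 h, 37C, humidified 5% CO2, 500 cells per well.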

[2] = Quantitative High-Throughput drug screen in 47 multiple myeloma cell lines against the NCATS MIPE library collection: EJM_DSMZ cell viability assay (AID 1918926; further: nearly all actives have a fitted effect of over 30% in size)
In short: as §1

[3] = Quantitative High-Throughput drug screen in 47 multiple myeloma cell lines against the NCATS MIPE library collection: ARD_JJKsccE7 cell viability assay (AID 1918929); settings: ARD myeloma cell line viability, CellTiter-Glo, 48 h; viability: at 45.8 µM (top of the series)
In short: as §1

[4] = Quantitative High-Throughput drug screen in 47 multiple myeloma cell lines against the NCATS MIPE library collection: ARP1_JJKsccF8 cell viability assay (AID 1918928; further: nearly all actives have a fitted effect of over 40% in size); settings: ARP1 myeloma cells viability, CellTiter-Glo ATP, 48 h; viability: at 45.8 µM (top of the series)
In short: (§2)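 Luminescence from CellTiter-Glo, taken after 5 min at room temperature, reports cellular ATP as viability. Cells (500 per well) had been treated 48 h at 37 °C with MIPE 4.0 compounds, scaled between DMSO and medium-only controls.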

[5] = Quantitative High-Throughput drug screen in 47 multiple myeloma cell lines against the NCATS MIPE library collection: Karpas620_DSMZ cell viability assay (AID 1918959); further: nearly all actives have a fitted effect of over 30% in size
In short: (§3)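 Myeloma cell lines, 500 cells per well, exposed to MIPE 4.0 library compounds for 48 h at 37C, 5% CO2. Viability from ATP by CellTiter-Glo luminescence; normalised to DMSO (100%) and media-only (0%) wells.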

[6] = Quantitative High-Throughput drug screen in 47 multiple myeloma cell lines against the NCATS MIPE library collection: AMO1_DSMZ cell viability assay (AID 1918927; further: nearly all actives have a fitted effect of over 30% in size); settings: AMO1 myeloma cells viability, CellTiter-Glo ATP luminescence, 48 h; viability, % of DMSO: at 45.8 µM (top of the series)
In short: as §1

[7] = Quantitative High-Throughput drug screen in 47 multiple myeloma cell lines against the NCATS MIPE library collection: KMM1_JCRB cell viability assay (AID 1918960); settings: KMM1 myeloma viability, CellTiter-Glo ATP luminescence, 48 h; viability (% of DMSO): at 45.8 µM (top of the series); further: nearly all actives have a fitted effect of over 30% in size;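 on viability (% of DMSO): 100% = DMSO-treated cells and 0% = medium-only wells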
In short: as §2

[8] = Quantitative High-Throughput drug screen in 47 multiple myeloma cell lines against the NCATS MIPE library collection: FR4_PLB cell viability assay (AID 1918924; further: nearly all actives have a fitted effect of over 35% in size)
In short: as §3
Potency means the concentration at half of the fitted maximal effect.

CC(C)[C@]12O[C@@H]1[C@@H]1O[C@]13[C@]1(O[C@H]1C[C@@H]1C4=C(CC[C@@]13C)C(=O)OC4)[C@H]2O
Potency [1]: inactive
Potency [2]: inactive
Potency [3]: inactive

C[C@@]12OC(=O)[C@]1([C@@H](O)[C@@H]1C=CCCC1)NC(=O)[C@H]2CCCl
viability (% of DMSO) [1]: inconclusive: 3.23% [cytotoxic]
Potency [2]: active: 0.0187 µM
Potency [4]: active: 0.0105 µM
Potency [3]: active: 0.001 µM
Potency [5]: active: 0.0093 µM

CCCN1CCO[C@@H]2c3cc(O)ccc3OC[C@@H]21
Potency [1]: inconclusive: 0.0013 µM [rising, full curve, poor fit]
Potency [6]: inconclusive: 5.26 µM [cytotoxic, partial curve, poor fit]
Potency [4]: inactive
Potency [3]: inactive
Potency [7]: inactive

COC(=O)[C@@H](N)CCCN=C(N)N[N+](=O)[O-]
Potency [1]: inactive
Potency [6]: inactive
Potency [4]: inactive
Potency [5]: inactive

C[C@]12CC[C@H]3[C@@H](CCC4=CC(=O)CC[C@@]43C)[C@H]1CC[C@H]2O
Potency [1]: inactive
Potency [2]: inconclusive: 0.0166 µM [rising, full curve, poor fit]
Potency [6]: inactive
Potency [3]: inactive
Potency [7]: inconclusive: 20.9 µM [cytotoxic, single point]

CC=C(C)C(=O)O[C@H]1C(C)=C2[C@@H]3OC(=O)[C@@](C)(O)[C@@]3(O)[C@@H](OC(=O)CCC)C[C@](C)(OC(C)=O)[C@@H]2[C@@H]1OC(=O)CCCCCCC
Potency [1]: active: 0.235 µM
Potency [2]: active: 0.0372 µM
Potency [6]: inconclusive: 0.418 µM [rising, full curve, poor fit]
Potency [3]: inconclusive: 1.18 µM [rising, full curve, poor fit]
Potency [5]: inactive
Potency [7]: inconclusive: 1.18 µM [rising, full curve, poor fit]

Cn1cc(C2=C(c3cn(C4CCN(Cc5ccccn5)CC4)c4ccccc34)C(=O)NC2=O)c2ccccc21
Potency [1]: active: 5.9 µM
Potency [4]: inconclusive: 16.6 µM [cytotoxic, partial curve]

C[C@]12COC(=O)C[C@@H]1CC[C@@H]1[C@H]2CC[C@@]2(C)[C@H]1CC[C@]2(C)O
Potency [1]: inactive
Potency [6]: inconclusive: 11.8 µM [cytotoxic, partial curve, poor fit]
Potency [4]: inconclusive: 11.8 µM [cytotoxic, single point]
Potency [3]: inconclusive: 0.0332 µM [cytotoxic, full curve, poor fit]

CN(C)NC(=O)CCC(=O)O
Potency [1]: inconclusive: 37.2 µM [cytotoxic, single point]
Potency [6]: inactive
Potency [4]: inconclusive: 2.35 µM [cytotoxic, full curve, poor fit]
Potency [3]: inactive
Potency [5]: inactive

CNC(=O)c1ccc(N2C(=S)N(c3ccc(C#N)c(C(F)(F)F)c3)C(=O)C23CCC3)cc1F
Potency [8]: inactive
Potency [4]: inactive
Potency [3]: active: 16.6 µM
Potency [7]: active: 16.6 µM

C=C(C)[C@H]1Cc2c(ccc3c2O[C@@H]2COc4cc(OC)c(OC)cc4[C@@H]2C3=O)O1
Potency [8]: active: 0.935 µM
Potency [4]: active: 0.526 µM

COCC1(CO)C(=O)C2CCN1CC2 (centres undefined)
Potency [1]: inconclusive: 29.6 µM [cytotoxic, single point]
Potency [2]: active: 20.9 µM
Potency [6]: inconclusive: 2.96 µM [cytotoxic, full curve]
Potency [5]: active: 23.5 µM

O=C(O)C(=O)c1cn(Cc2ccccc2)c2ccc(-c3ccc(OC(F)(F)F)cc3)cc12
Potency [1]: active: 20.9 µM
Potency [6]: inactive
Potency [4]: inactive

CC(C)(C)c1cc(C=C(C#N)C#N)cc(Br)c1O
Potency [8]: active: 26.4 µM
Potency [3]: inconclusive: 18.7 µM [cytotoxic, partial curve, poor fit]
Potency [5]: inconclusive: 26.4 µM [cytotoxic, single point]

COc1ccc(CC2NCCc3cc(OC)c(OC)cc32)cc1OC (centres undefined)
Potency [1]: inactive
Potency [6]: inconclusive: 0.0021 µM [rising, full curve, poor fit]
Potency [4]: inconclusive: 18.7 µM [cytotoxic, partial curve, poor fit]
Potency [5]: inactive

CC(=O)N(C)c1cccc(-c2ccnc3c(C(=O)c4cccs4)cnn23)c1
Potency [1]: inconclusive: 0.003 µM [cytotoxic, full curve, poor fit]
Potency [6]: inconclusive: 26.4 µM [cytotoxic, single point]
Potency [4]: inconclusive: 5.26 µM [cytotoxic, partial curve, poor fit]
Potency [5]: inconclusive: 26.4 µM [cytotoxic, partial curve, poor fit]
Potency [7]: inconclusive: 18.7 µM [cytotoxic, partial curve]
